This is one part of the list. The main result of the screen is listed elsewhere. These columns were measured beside it and carry no call. Most of these compounds were active or inconclusive in the main read-out, so they are no random draw. Potencies come from curve fits of mixed quality, noted in brackets.

This experiment can be described thus: qHTS Assay to Find Inhibitors of Chronic Active B-Cell Receptor Signaling. Conditions: ABC-DLBCL IkBa-CBG/CBR reporter, luminescence ratio (green luciferase fused to IkBa over red control in TMD8 lymphoma cells), 4 h. The method in brief: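 Cell line TMD8 (human ABC DLBCL), stably expressing tet-inducible CBG68-IkBa fusion and CBR; IMDM/0.5% FBS; cpd up to 46 uM; dox induction, 4 h, 37C/5% CO2; dual luminescence; green/red ratio; MG132 control.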
Background: In qHTS, concentration-response curves come from the screen itself.

Where [1] appears, read: measured here: CBR red luminescence, cell number.
[2] abbreviates: measured here: IkBa-CBG green luminescence.

Regarding `COc1ccc(CNC(=O)c2cc(-n3cnnc3)ccc2Cl)cc1`, the AC50 under setting [1] was 6.51 µM [rising, single point].
In the case of `Cc1c(/C(O)=C2/C(=O)C(=O)N(CCN3CCOCC3)C2c2cccs2)cnn1-c1ccccc1` (stereo unspecified), the AC50 under setting [1] was 0.58 µM [rising, partial curve, poor fit].
As for `COC(=O)CCC(=O)NC(=S)Nc1cc(Cl)ccc1Cl`, the half-maximal activity concentration (AC50) under setting [1] was 8.91 µM [falling, partial curve, poor fit].
For the compound `COc1cccc(-c2cc(C(=O)N3CCc4ccccc4C3)[nH]n2)c1`, the AC50 under setting [1] was 22.4 µM [falling, partial curve, poor fit].
For `O=C(Nc1cccs1)N1CCN(c2ncccn2)CC1`, the AC50 under setting [1] is 10 µM [falling, partial curve, poor fit].
For the compound `Cc1ccc(NC(=O)COC(=O)c2csc3c2CCC(C)C3)cc1S(=O)(=O)N1CCCCC1` (stereo unspecified), the AC50 under setting [2] is 3.26 µM [rising, full curve, poor fit].
As for `COc1ccc(S(=O)(=O)N2CCN(C)CC2)c2ccccc12`, the AC50 under setting [1] was 16.4 µM [rising, partial curve, poor fit].
Take `O=C(c1ccco1)c1cn(CC(=O)N2CCCC2)c2ccccc12`: under setting [1], the AC50 is 0.708 µM [falling, full curve, poor fit].
On to `Cc1ccc(NC(=O)NCC(c2ccccc2)N(C)C)cc1` (stereo unspecified), for which, under setting [1], the AC50 is 8.91 µM [rising, partial curve].
Same read-out and setting: to `Cc1ccnc2nc(C(=O)NCCc3ccc(F)cc3)nn12` belongs 35.5 µM [falling, single point].
The same measure, in the same setting: then `CCC(=O)N1CCN(c2ccccc2NC(=O)COc2cccc(C)c2C)CC1`, with 15.8 µM [falling, single point]; and `COc1cc(C(=O)Oc2cccc(Nc3ncnc4ccccc34)c2)cc(OC)c1OC`, with 7.94 µM [falling, partial curve].
Still for that read-out and setting: then `CCc1cc(=O)oc2c3c(cc(OCC(=O)NCCCCCC(=O)O)c12)OC(C)(C)CC3`, with 0.501 µM [rising, partial curve, poor fit]; and `Cc1c(NC(=O)c2ccc(-c3ccccc3)cc2)cccc1C(=O)O`, with 11.2 µM [falling, partial curve].
Turning to `O=C(c1ccc(CNS(=O)(=O)c2ccccc2)cc1)N1CCN(c2ccccn2)CC1`, the AC50 under setting [1] was 14.1 µM [falling, single point].
As to `CCc1nc(SCC(=O)Nc2ccccc2C(=O)OC)n[nH]1`, the AC50 under setting [1] was 6.51 µM [falling, partial curve, poor fit].
For `COC(=O)c1ccc2c(=O)[nH]c(COC(=O)c3[nH]c(C)c(C(C)=O)c3C)nc2c1`, the AC50 runs as follows: under setting [1], 0.146 µM [rising, full curve, poor fit]; under setting [2], 0.092 µM [falling, full curve, poor fit].
Take `O=C(Nc1ccc(F)c(F)c1)c1cc(S(=O)(=O)NC2CCCC2)ccc1F`: the AC50 under setting [1] was 5.01 µM [falling, partial curve, poor fit].
On the same count and under the same terms, then `COc1ccc(NC(=O)c2ccc(C#CC(C)(C)O)cc2)cc1`, with 29.1 µM [falling, single point].
On the same count and under the same terms, then `O=C(Nc1ccccn1)c1ccc(CN(c2ccccc2)S(=O)(=O)c2ccccc2)cc1`, with 12.6 µM [falling, partial curve, poor fit]; and `Cc1cc(NC(=O)c2ccc(C#N)cc2)on1`, with 3.55 µM [rising, partial curve, poor fit]; and `N#C/C(=C/c1cccc([N+](=O)[O-])c1)c1nnc2n1CCCCC2`, with 29.1 µM [falling, single point].
Still for that read-out and setting: then `O=C(NC1CC1)C1=C[C@@H](C2CCCCC2)C[C@@H](OCc2ccc(CO)cc2)O1`, with 0.1 µM [falling, full curve, poor fit]; and `COc1cccc(NC(=O)N(CCCN2CCOCC2)C(C)c2cc3ccccc3o2)c1` (stereo unspecified), with 18.4 µM [falling, single point]; and `CC(=O)n1cc([C@@H]2C=C(C(=O)Nc3ccccc3)O[C@H](OCc3ccc(CO)cc3)C2)c2ccccc21`, with 11.2 µM [falling, partial curve].
Take `CCOC(=O)C1=C(c2ccccc2)OC(N)=C(C#N)C1c1cccs1` (stereo unspecified): the half-maximal activity concentration (AC50) under setting [1] was 35.5 µM [falling, single point].
On to `Cc1c[nH]c2cccc(OCC(CNC(C)(C)C)OC(=O)c3ccccc3)c12` (stereo unspecified), for which, under setting [1], the half-maximal activity concentration (AC50) is 15.8 µM [falling, single point].
Take `COc1ccccc1C(c1nnnn1CCc1ccccc1)N1CCCCCC1` (stereo unspecified): the AC50 under setting [1] was 29.1 µM [falling, single point].
For `CCCC(=O)Nc1sc2c(c1C#N)CCCCC2`, under setting [1], the AC50 is 1.3 µM [rising, full curve, poor fit].
Regarding `O=C(COC(=O)c1ccc(Cl)nc1)Nc1ccc2ccccc2c1`, under setting [1], the concentration at half-maximal activity (AC50) is 32.6 µM [rising, single point].
On the same count and under the same terms, then `O=c1c2[nH]c3ccccc3c2ncn1Cc1ccco1`, with 35.5 µM [falling, single point]; and `Nc1c(S(=O)(=O)c2cccc(Cl)c2)c2nc3ccccc3nc2n1/N=C/c1ccc(O)c(O)c1`, with 3.98 µM [falling, partial curve, poor fit].
Same read-out and setting: to `COC(=O)c1cc(NS(=O)(=O)c2ccc(N3CCC(C)CC3)c([N+](=O)[O-])c2)cc(C(=O)OC)c1` belongs 0.116 µM [falling, full curve, poor fit]; to `O=[N+]([O-])c1cccc(-c2nnc(-c3ccccc3F)o2)c1`, 0.501 µM [rising, full curve, poor fit].
For the compound `Cc1nn(C(=O)c2cccs2)c(N)c1-c1ccccc1`, under setting [1], the AC50 is 6.51 µM [rising, partial curve, poor fit].
The same measure, in the same setting: to `C=CCNC(=O)c1ccccc1NC(=O)COc1ccccc1` belongs 35.5 µM [falling, single point].
Consider `CCn1c(=O)c([N+](=O)[O-])c(Cl)c2ccccc21`, for which the AC50 under setting [1] was 15.8 µM [rising, partial curve] and the AC50 under setting [2] is 8.91 µM [falling, partial curve].
As to `C=CCn1c(=NC(=O)c2cccs2)sc2cc(NC(C)=O)ccc21`, the half-maximal activity concentration (AC50) under setting [1] is 28.2 µM [falling, single point].
On the same count and under the same terms, to `Oc1ccc(Br)cc1-c1nc2cnccn2c1NC1CCCCC1` belongs 0.651 µM [falling, full curve, poor fit].

By AC50 is commonly meant the concentration giving half of the maximal activity seen.

These data come from PubChem BioAssay AID493014 (National Center for Advancing Translational Sciences (NCATS), 2011).
